PubChem BioAssay AID1259405 | NCATS | 2018
Test: 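Knock-downs that lift recombinant protein yield in hamster ovary cells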 (primary screen). Cell system: Chinese hamster CHO-K1 ovary cells with stable secreted eGFP expression. Knock-down reagent: single siRNA against mouse genes, 0.8 pmol siRNA per well (2 µl of 400 nM stock). Time to read-out: 3 days. Measurement: 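Percent of the per-plate non-targeting control median for intracellular GFP per well by laser scanning cytometry and for cell viability by ATP luminescence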. Reading the numbers: GFP, % of control: higher = more GFP per well, higher productivity; viability (ATP), % of control: higher = more viable cells (more ATP). Call rule: 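Called active when intracellular GFP, relative to negative control, is at or above 120%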.
The whole screen tested about 50,000 reagents; this is a random part of them. In the full data, about 4,000 (8%) are marked active. 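Mouse siRNA library applied to hamster cells; one well for each siRNA.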 Entries without a mark were called inactive. Reagents against one gene are numbered here.

{"target": "Pram1 (GeneID 378460)", "reagent": 1, "GFP, % of control": 74.5, "viability (ATP), % of control": 59.8}
{"target": "Pram1 (GeneID 378460)", "reagent": 2, "GFP, % of control": 25.4, "viability (ATP), % of control": 50.7}
{"target": "Pram1 (GeneID 378460)", "reagent": 3, "GFP, % of control": 76.7, "viability (ATP), % of control": 91.6}
{"target": "Tedc1 (GeneID 104732)", "reagent": 1, "GFP, % of control": 70.7, "viability (ATP), % of control": 47.9}
{"target": "Tedc1 (GeneID 104732)", "reagent": 2, "GFP, % of control": 64.5, "viability (ATP), % of control": 66.5}
{"target": "Tedc1 (GeneID 104732)", "reagent": 3, "GFP, % of control": 58.6, "viability (ATP), % of control": 52.7}
{"target": "Apip (GeneID 56369)", "reagent": 1, "GFP, % of control": 74.5, "viability (ATP), % of control": 56.9}
{"target": "Apip (GeneID 56369)", "reagent": 2, "GFP, % of control": 92.5, "viability (ATP), % of control": 80.3}
{"target": "Apip (GeneID 56369)", "reagent": 3, "GFP, % of control": 42.8, "viability (ATP), % of control": 67.1}
{"target": "Rap2b (GeneID 74012)", "reagent": 1, "GFP, % of control": 81.1, "viability (ATP), % of control": 93.6}
{"target": "Rap2b (GeneID 74012)", "reagent": 2, "GFP, % of control": 76.6, "viability (ATP), % of control": 68.2}
{"target": "Rap2b (GeneID 74012)", "reagent": 3, "GFP, % of control": 94.8, "viability (ATP), % of control": 95.4}
{"target": "Jmjd8 (GeneID 72106)", "reagent": 1, "GFP, % of control": 82.2, "viability (ATP), % of control": 55.9}
{"target": "Jmjd8 (GeneID 72106)", "reagent": 2, "GFP, % of control": 63.1, "viability (ATP), % of control": 65.1}
{"target": "Jmjd8 (GeneID 72106)", "reagent": 3, "GFP, % of control": 62.1, "viability (ATP), % of control": 75}
{"target": "Hmgcs1 (GeneID 208715)", "reagent": 1, "GFP, % of control": 73.8, "viability (ATP), % of control": 86.1}
{"target": "Hmgcs1 (GeneID 208715)", "reagent": 2, "GFP, % of control": 60.5, "viability (ATP), % of control": 72.1}
{"target": "Hmgcs1 (GeneID 208715)", "reagent": 3, "GFP, % of control": 51.2, "viability (ATP), % of control": 66.1}
{"target": "Vmn1r235 (GeneID 171233)", "reagent": 1, "GFP, % of control": 103, "viability (ATP), % of control": 69.1}
{"target": "Vmn1r235 (GeneID 171233)", "reagent": 2, "GFP, % of control": 95.7, "viability (ATP), % of control": 95.2}
{"target": "Vmn1r235 (GeneID 171233)", "reagent": 3, "GFP, % of control": 37.4, "viability (ATP), % of control": 48.7}
{"target": "Cnot10 (GeneID 78893)", "reagent": 1, "GFP, % of control": 75.8, "viability (ATP), % of control": 88}
{"target": "Cnot10 (GeneID 78893)", "reagent": 2, "GFP, % of control": 84.8, "viability (ATP), % of control": 77}
{"target": "Cnot10 (GeneID 78893)", "reagent": 3, "GFP, % of control": 83.1, "viability (ATP), % of control": 115}
{"target": "Iftap (GeneID 68170)", "reagent": 1, "GFP, % of control": 109, "viability (ATP), % of control": 79.9}
{"target": "Iftap (GeneID 68170)", "reagent": 2, "GFP, % of control": 54.6, "viability (ATP), % of control": 55.6}
{"target": "Iftap (GeneID 68170)", "reagent": 3, "GFP, % of control": 118, "viability (ATP), % of control": 99.4}
{"target": "Zfp612 (GeneID 234725)", "reagent": 1, "GFP, % of control": "122 (active)", "viability (ATP), % of control": 119}
{"target": "Zfp612 (GeneID 234725)", "reagent": 2, "GFP, % of control": 26.9, "viability (ATP), % of control": 24.6}

Individual results from the entries so far.
Value for Iftap (GeneID 68170) #3 in “viability (ATP), % of control”: 99.4
Under “viability (ATP), % of control”, Jmjd8 (GeneID 72106) #2 reads 65.1
Jmjd8 (GeneID 72106) #3, GFP, % of control: 62.1
For “GFP, % of control”, Pram1 (GeneID 378460) #3 has 76.7
For “GFP, % of control”, Apip (GeneID 56369) #1 has 74.5

More records follow:
{"target": "Hdac4 (GeneID 208727)", "reagent": 1, "GFP, % of control": 110, "viability (ATP), % of control": 82.1}
{"target": "Hdac4 (GeneID 208727)", "reagent": 2, "GFP, % of control": 119, "viability (ATP), % of control": 120}
{"target": "Hace1 (GeneID 209462)", "reagent": 1, "GFP, % of control": 82.6, "viability (ATP), % of control": 69.5}
{"target": "Hace1 (GeneID 209462)", "reagent": 2, "GFP, % of control": "160 (active)", "viability (ATP), % of control": 75.5}
{"target": "Hace1 (GeneID 209462)", "reagent": 3, "GFP, % of control": 92.7, "viability (ATP), % of control": 79.8}
{"target": "Or5g29 (GeneID 258428)", "reagent": 1, "GFP, % of control": 114, "viability (ATP), % of control": 84}
{"target": "Or5g29 (GeneID 258428)", "reagent": 2, "GFP, % of control": 50.3, "viability (ATP), % of control": 72.5}
{"target": "Or5g29 (GeneID 258428)", "reagent": 3, "GFP, % of control": 69.5, "viability (ATP), % of control": 61.2}
{"target": "Or5ac22 (GeneID 258994)", "reagent": 1, "GFP, % of control": 52.1, "viability (ATP), % of control": 55.2}
{"target": "Or5ac22 (GeneID 258994)", "reagent": 2, "GFP, % of control": 109, "viability (ATP), % of control": 95.5}
{"target": "Or5ac22 (GeneID 258994)", "reagent": 3, "GFP, % of control": 23.4, "viability (ATP), % of control": 63.7}
{"target": "Itk (GeneID 16428)", "reagent": 1, "GFP, % of control": 93.3, "viability (ATP), % of control": 73.7}
{"target": "Rgs18 (GeneID 64214)", "reagent": 1, "GFP, % of control": 67.3, "viability (ATP), % of control": 71.9}
{"target": "Rgs18 (GeneID 64214)", "reagent": 2, "GFP, % of control": 37.3, "viability (ATP), % of control": 18.7}
{"target": "Rgs18 (GeneID 64214)", "reagent": 3, "GFP, % of control": 74.7, "viability (ATP), % of control": 51.9}
{"target": "Txlna (GeneID 109658)", "reagent": 1, "GFP, % of control": 56.9, "viability (ATP), % of control": 71.5}
{"target": "Txlna (GeneID 109658)", "reagent": 2, "GFP, % of control": 47.2, "viability (ATP), % of control": 23.2}
{"target": "Txlna (GeneID 109658)", "reagent": 3, "GFP, % of control": 51, "viability (ATP), % of control": 37.9}
{"target": "Rnf14 (GeneID 56736)", "reagent": 1, "GFP, % of control": 48.9, "viability (ATP), % of control": 31.8}
{"target": "Rnf14 (GeneID 56736)", "reagent": 2, "GFP, % of control": 41.9, "viability (ATP), % of control": 41.8}
{"target": "Rnf14 (GeneID 56736)", "reagent": 3, "GFP, % of control": 101, "viability (ATP), % of control": 90.7}
{"target": "Qars1 (GeneID 97541)", "reagent": 1, "GFP, % of control": "128 (active)", "viability (ATP), % of control": 110}
{"target": "Qars1 (GeneID 97541)", "reagent": 2, "GFP, % of control": 77.1, "viability (ATP), % of control": 79.8}
{"target": "Qars1 (GeneID 97541)", "reagent": 3, "GFP, % of control": 82.6, "viability (ATP), % of control": 118}
